Results reported in patent US5017689A (Arizona Technology Development Corporation, priority 1989, dated 1991).

Assay: general procedure: Boc solid-phase peptide synthesis; para-methylbenzhydrylamine resin; preformed HOBt active esters
Conditions: whole synthesis, scale 0.5 mequiv

Q: With “PEPTIDE1{Y.G.G.F.L.R.R.I.R.P.K.[am]}$$$$V2.0” as the substance, how does the crude mass read?
A: 0.40 g

Strings that start with PEPTIDE1 are HELM notation: dots part the residues, brackets hold end groups and non-standard residues.
